The record followed here is the supplement of paper PMC6411743.

Sequences of proteins named here, by UniProt entry; tags and fusion partners are left off. A change or cut given only in a name is not applied to a line headed by its entry.
UniProt Q9ULV3: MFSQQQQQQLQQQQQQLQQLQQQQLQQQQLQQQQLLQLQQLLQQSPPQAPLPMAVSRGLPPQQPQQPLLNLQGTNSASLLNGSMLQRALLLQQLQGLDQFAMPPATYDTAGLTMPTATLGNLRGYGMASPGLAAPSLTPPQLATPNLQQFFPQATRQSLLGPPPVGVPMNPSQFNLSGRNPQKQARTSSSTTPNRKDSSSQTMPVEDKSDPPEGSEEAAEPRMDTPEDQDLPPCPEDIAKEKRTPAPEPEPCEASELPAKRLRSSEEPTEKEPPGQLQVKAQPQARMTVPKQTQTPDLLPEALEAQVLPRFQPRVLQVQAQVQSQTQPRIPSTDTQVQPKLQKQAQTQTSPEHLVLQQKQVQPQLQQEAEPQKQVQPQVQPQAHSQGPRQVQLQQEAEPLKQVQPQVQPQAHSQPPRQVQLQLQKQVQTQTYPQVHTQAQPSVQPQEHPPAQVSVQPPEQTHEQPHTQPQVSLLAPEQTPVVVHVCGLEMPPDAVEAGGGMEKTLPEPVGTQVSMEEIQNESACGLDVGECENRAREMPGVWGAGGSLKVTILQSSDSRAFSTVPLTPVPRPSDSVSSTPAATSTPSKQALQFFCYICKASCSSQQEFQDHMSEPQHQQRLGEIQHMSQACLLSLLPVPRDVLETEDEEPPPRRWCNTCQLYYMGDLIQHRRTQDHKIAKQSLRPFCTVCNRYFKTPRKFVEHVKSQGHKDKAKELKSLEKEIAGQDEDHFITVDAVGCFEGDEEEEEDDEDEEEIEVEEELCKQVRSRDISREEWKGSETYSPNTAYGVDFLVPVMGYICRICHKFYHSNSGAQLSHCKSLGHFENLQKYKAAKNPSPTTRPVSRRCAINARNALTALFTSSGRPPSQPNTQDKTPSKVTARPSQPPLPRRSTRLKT
UniProt Q9NZD2: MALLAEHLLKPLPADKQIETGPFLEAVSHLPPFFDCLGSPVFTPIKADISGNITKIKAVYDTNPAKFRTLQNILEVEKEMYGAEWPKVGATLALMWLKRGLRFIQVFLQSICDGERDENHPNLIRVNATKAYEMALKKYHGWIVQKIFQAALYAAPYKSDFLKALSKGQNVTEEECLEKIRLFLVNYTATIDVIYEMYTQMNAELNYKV
UniProt E9PAV3, whole entry, looked up: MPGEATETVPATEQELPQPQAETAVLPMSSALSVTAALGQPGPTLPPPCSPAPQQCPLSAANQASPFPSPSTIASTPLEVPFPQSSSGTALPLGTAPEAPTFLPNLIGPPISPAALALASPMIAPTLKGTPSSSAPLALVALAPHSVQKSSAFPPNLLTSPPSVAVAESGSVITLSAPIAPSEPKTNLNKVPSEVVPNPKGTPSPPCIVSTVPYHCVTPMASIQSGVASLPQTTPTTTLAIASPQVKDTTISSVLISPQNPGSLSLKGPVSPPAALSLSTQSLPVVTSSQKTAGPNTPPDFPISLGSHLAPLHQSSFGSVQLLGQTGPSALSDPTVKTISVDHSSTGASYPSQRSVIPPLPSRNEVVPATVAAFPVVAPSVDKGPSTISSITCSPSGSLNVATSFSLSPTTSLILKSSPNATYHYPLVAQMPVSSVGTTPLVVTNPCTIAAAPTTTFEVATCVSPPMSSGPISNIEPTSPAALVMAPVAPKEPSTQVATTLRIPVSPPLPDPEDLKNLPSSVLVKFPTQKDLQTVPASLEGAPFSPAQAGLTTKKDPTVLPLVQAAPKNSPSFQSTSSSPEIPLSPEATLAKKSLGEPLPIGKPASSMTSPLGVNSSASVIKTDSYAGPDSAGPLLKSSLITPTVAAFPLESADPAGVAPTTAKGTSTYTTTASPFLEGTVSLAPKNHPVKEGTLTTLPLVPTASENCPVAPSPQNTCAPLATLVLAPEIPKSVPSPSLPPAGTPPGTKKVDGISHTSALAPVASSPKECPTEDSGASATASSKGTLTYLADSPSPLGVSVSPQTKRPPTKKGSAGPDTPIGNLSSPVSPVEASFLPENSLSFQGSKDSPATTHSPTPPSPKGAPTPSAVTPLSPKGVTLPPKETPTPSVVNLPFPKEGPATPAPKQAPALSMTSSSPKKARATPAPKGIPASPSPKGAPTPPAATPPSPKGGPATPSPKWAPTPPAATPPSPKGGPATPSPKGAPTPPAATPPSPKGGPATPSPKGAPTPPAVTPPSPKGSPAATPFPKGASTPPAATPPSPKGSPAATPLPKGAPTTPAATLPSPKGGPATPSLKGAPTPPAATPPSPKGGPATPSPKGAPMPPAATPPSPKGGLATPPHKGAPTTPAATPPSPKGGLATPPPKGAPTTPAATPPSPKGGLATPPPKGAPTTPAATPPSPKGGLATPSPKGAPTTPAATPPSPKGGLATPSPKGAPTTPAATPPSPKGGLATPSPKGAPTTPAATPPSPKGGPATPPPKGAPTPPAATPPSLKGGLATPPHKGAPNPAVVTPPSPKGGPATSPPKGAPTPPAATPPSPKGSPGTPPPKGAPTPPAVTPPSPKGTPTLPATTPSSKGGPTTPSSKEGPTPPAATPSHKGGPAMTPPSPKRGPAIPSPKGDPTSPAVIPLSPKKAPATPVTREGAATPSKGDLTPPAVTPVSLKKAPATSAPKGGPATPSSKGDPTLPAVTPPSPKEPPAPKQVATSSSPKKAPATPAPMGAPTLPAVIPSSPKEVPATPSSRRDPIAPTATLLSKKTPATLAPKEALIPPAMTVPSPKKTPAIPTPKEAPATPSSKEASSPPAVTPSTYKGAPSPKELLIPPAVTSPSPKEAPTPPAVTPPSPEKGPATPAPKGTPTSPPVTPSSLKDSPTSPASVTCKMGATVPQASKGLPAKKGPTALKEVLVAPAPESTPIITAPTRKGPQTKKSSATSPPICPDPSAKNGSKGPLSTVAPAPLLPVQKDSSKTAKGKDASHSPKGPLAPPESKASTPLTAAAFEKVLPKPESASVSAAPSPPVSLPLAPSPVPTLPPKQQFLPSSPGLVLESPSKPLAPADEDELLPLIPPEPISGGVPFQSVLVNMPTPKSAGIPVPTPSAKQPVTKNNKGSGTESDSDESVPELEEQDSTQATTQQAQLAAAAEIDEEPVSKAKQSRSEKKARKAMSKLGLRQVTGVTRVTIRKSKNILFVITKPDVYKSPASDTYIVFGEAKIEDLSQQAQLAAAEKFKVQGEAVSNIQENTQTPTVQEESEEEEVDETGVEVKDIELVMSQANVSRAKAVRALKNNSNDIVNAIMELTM
UniProt Q9NQV6: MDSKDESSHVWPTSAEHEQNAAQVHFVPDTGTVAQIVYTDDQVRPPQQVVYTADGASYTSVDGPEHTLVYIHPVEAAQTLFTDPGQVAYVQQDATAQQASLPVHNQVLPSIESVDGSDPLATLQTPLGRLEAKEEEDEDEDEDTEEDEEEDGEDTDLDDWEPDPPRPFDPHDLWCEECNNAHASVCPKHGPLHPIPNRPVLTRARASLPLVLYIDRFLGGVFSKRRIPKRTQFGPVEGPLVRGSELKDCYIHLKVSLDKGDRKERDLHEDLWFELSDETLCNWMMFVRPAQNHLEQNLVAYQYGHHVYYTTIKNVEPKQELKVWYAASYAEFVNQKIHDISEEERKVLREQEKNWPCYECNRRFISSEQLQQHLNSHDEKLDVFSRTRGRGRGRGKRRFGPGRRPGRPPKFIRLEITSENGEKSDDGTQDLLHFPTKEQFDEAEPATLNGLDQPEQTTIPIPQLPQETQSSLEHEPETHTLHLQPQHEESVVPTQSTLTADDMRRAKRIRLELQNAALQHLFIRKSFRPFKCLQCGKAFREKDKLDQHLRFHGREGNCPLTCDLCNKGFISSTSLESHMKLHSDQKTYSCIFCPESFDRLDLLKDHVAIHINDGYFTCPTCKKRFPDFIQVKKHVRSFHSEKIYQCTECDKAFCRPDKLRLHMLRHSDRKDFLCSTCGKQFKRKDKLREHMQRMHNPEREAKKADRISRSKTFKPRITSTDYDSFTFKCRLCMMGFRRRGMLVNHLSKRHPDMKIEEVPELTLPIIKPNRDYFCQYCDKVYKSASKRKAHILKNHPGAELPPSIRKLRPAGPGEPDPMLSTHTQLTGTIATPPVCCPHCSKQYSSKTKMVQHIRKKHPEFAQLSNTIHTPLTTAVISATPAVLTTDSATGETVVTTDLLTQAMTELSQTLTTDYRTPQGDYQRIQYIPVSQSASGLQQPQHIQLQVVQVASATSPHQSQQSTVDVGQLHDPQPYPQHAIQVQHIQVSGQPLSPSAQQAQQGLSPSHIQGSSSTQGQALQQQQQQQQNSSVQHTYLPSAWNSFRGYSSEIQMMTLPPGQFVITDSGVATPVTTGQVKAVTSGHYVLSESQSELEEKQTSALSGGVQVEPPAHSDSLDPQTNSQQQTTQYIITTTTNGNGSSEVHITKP
UniProt Q13206, whole entry: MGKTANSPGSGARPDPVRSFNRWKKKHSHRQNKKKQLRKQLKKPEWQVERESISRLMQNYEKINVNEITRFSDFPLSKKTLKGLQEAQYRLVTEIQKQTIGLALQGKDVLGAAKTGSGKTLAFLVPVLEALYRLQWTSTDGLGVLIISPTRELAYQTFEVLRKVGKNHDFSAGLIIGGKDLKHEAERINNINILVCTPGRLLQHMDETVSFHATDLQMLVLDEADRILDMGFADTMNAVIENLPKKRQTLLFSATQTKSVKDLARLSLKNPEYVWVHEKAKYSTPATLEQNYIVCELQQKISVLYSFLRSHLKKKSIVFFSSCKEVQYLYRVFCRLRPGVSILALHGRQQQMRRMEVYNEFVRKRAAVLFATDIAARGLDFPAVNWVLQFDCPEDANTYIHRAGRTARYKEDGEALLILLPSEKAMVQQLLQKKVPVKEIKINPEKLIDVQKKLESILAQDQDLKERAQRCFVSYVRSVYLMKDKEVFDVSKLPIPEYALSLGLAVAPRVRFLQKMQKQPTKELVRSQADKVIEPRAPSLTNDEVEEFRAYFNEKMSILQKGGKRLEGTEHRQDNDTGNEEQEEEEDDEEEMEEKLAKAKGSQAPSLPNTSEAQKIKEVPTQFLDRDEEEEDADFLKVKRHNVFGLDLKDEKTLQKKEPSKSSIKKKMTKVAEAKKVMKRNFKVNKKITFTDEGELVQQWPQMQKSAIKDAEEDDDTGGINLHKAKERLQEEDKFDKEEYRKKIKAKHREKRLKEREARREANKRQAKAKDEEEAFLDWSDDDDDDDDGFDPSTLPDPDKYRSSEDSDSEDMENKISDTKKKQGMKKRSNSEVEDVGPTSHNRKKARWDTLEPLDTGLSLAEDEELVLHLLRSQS

± gives the standard deviation of the averaged measurements. The list shows a part of the results.

Compound in the assay: Nc1nc2c(ncn2[C@@H]2O[C@H](COP(=O)(O)OP(=O)(O)OP(=O)(O)O)[C@@H](O)[C@H]2O)c(=O)[nH]1 [guanosine triphosphate]
As to the kind of experiment: NP40-soluble protein abundance relative to vehicle (solubility fold change) (ratio); higher = more soluble protein in presence of GTP. As to the method:
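Solubility proteome profiling in Jurkat crude lysate. Lysate was treated with Mg-GTP (0.1-10 mM) for 10 min at room temperature and 3 min at 37 °C, then solubilised with 0.8% NP40 and benzonase, followed by ultracentrifugation. Proteins were quantified by TMT10 LC-MS/MS; the value is the NP40-soluble abundance relative to the NP40-processed vehicle, from 3 independent experiments.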

For the target “F5H2X7 and related entries (UniProt Q9ULV3)”, the NP40-soluble protein abundance by setting is: (concentration: 0.1mM) 1.03 ± 0.059; (concentration: 0.5mM) 1.01 ± 0.097; (concentration: 1mM) 1.03 ± 0.047; (concentration: 2mM) 0.981 ± 0.1; (concentration: 4mM) 1 ± 0.06; (concentration: 6mM) 0.984 ± 0.08. Further, the NP40-soluble protein abundance (concentration: 8mM) is 1.03 ± 0.041 and the NP40-soluble protein abundance (concentration: 10mM) was found to be 1.01 ± 0.052.
Consider “F5H0U5 and related entries (UniProt Q9NZD2)”, for which the NP40-soluble protein abundance was 0.786 ± 0.12 (concentration: 0.1mM); 0.74 ± 0.092 (concentration: 0.5mM); 0.92 ± 0.13 (concentration: 1mM); 0.929 ± 0.095 (concentration: 2mM); 0.921 ± 0.082 (concentration: 4mM); 0.888 ± 0.056 (concentration: 6mM). Moreover, the NP40-soluble protein abundance is, setting by setting: (concentration: 8mM) 0.75 ± 0.16; (concentration: 10mM) 0.939 ± 0.14.
“E9PAV3 and related entries (UniProt Q13765+H0YHX9+F8VZJ2+E9PAV3)”: the NP40-soluble protein abundance is 0.858 ± 0.15 (concentration: 0.1mM); 0.871 ± 0.15 (concentration: 0.5mM); 0.852 ± 0.15 (concentration: 1mM); 0.907 ± 0.15 (concentration: 2mM); 0.912 ± 0.14 (concentration: 4mM); 0.934 ± 0.16 (concentration: 6mM). In addition, the NP40-soluble protein abundance reads like this: (concentration: 8mM) 0.899 ± 0.16; (concentration: 10mM) 0.971 ± 0.15.
Regarding “E9PLV1 and related entries (UniProt Q9NQV6)”, the NP40-soluble protein abundance turned out to be 1.07 ± 0.12 (concentration: 0.1mM); 1.18 ± 0.14 (concentration: 0.5mM); 1.07 ± 0.13 (concentration: 1mM); 1.08 ± 0.16 (concentration: 2mM); 1.0337 ± 0.00049 (concentration: 4mM); 1.05 ± 0.018 (concentration: 6mM). Also, the NP40-soluble protein abundance reads like this: (concentration: 8mM) 1.02 ± 0.07; (concentration: 10mM) 0.98 ± 0.026.
Turning to “E9PIF2 and related entries (UniProt Q13206)”, the NP40-soluble protein abundance runs as follows: (concentration: 0.1mM) 0.999 ± 0.029; (concentration: 0.5mM) 0.975 ± 0.057; (concentration: 1mM) 1.06 ± 0.048; (concentration: 2mM) 1.05 ± 0.066; (concentration: 4mM) 0.976 ± 0.08; (concentration: 6mM) 0.971 ± 0.058. Besides, the NP40-soluble protein abundance (concentration: 8mM) stood at 0.961 ± 0.087 and the NP40-soluble protein abundance (concentration: 10mM) was found to be 0.996 ± 0.041.
